# Measurements reported in PubChem BioAssay AID504804 (Drosophila RNAi Screening Center, 2011)
# Aim: 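Fly genes whose loss lessens doxorubicin-driven cell death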 (primary screen)
# Cells: Drosophila Kc cells
# Reagent: long dsRNA against Drosophila genes, 0.5 µg dsRNA per well
# Timing: 96 h (48 h knock-down, then 48 h drug)
# Challenge: doxorubicin 5 µg/ml for 48 h, added 48 h after dsRNA
# Measured: 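Viability measured as cellular ATP by luminescence after 48 h knock-down then 48 h doxorubicin at 5 µg/ml; unnormalised plate counts for each replicate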
# Reading the numbers: raw ATP luminescence: higher = more viable cells, protection from doxorubicin
# Hit rule: 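Active when both duplicate wells lie at least 2 SD above the plate mean and protection is confirmed by rescreening and independent dsRNAs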
# The screen tested about 19,000 reagents; shown is a random part of those that have a named target and a result. Over the whole deposit, 47 (0.25%) got an active call. 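Signals are raw, not normalised; exact z-scores behind calls not deposited; actives needed confirmation, so some wells reaching 2 SD are inactive.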 A plus sign joins genes that one reagent is predicted to hit.
Gene,DRSC id,"raw ATP luminescence, replicate 1","raw ATP luminescence, replicate 2",call
CG6805,DRSC07011,68627,69143,inactive
pAbp,DRSC07659,52113,63247,inactive
Acyp2,DRSC15336,92690,63420,inactive
CG30109 + CG30108,DRSC05674,1.52e5,1.31e5,inactive
CG42818 + Ca-Ma2d,DRSC01963,54263,61447,inactive
Cyt-c1,DRSC10447,30530,48753,inactive
CG30195,DRSC04155,58477,48597,inactive
Axn,DRSC14120,1.49e5,1.19e5,inactive
Gr58a,DRSC03910,61380,63837,inactive
CG4701,DRSC01952,52133,83460,inactive
MAGE,DRSC12504,66130,62073,inactive
RpL13,DRSC03416,60853,73860,inactive
Naprt,DRSC00630,1.15e5,84750,inactive
Pomp,DRSC03201,37850,35357,inactive
fusl,DRSC02351,1.09e5,65377,inactive
CG16965,DRSC02547,38780,52350,inactive
CG5177,DRSC02824,1.21e5,65410,inactive
hale,DRSC10882,62593,52683,inactive
CG33255 (retired record) + hpRNA:CR32205 + hpRNA:CR32207,DRSC09617,70353,70873,inactive
l(2)34Fd,DRSC01911,1.05e5,82777,inactive
CG5435,DRSC02860,76093,75697,inactive
CG8728,DRSC07251,63290,47100,inactive
CG6511,DRSC10656,72527,80593,inactive
Toll-6,DRSC11304,77127,51943,inactive
Brf,DRSC13228,2.67e5,3.08e5,inactive
Brf,DRSC14166,71920,92430,inactive
Brf,DRSC14167,71540,68560,inactive
erm,DRSC00700,1.07e5,82543,inactive
CG42369,DRSC03244,24417,31423,inactive
ClpP,DRSC02806,89853,61293,inactive
tna,DRSC09053,1.39e5,1.61e5,inactive
tna,DRSC10937,67903,67943,inactive
gkt,DRSC00821,25460,30467,inactive
CG10068,DRSC12508,54447,18633,inactive
Cyt-b5,DRSC07392,46547,41427,inactive
CG14286,DRSC14767,43220,47840,inactive
CG2812,DRSC04319,52800,52637,inactive
Cpr,DRSC03293,1.13e5,74293,inactive
asRNA:CR42743 + CG34162,DRSC01190,3.16e5,3.33e5,inactive
CG13738,DRSC10065,62200,57803,inactive
CG14262,DRSC14757,62840,49980,inactive
nAChRalpha4,DRSC11925,36747,55643,inactive
CG9705,DRSC11094,21400,19783,inactive
CG31098,DRSC14259,59980,49740,inactive
Rrp5,DRSC15862,38527,40253,inactive
PGRP-SA,DRSC19420,3.32e5,3.02e5,inactive
PGRP-SB2,DRSC11092,61300,54313,inactive
mRpL35,DRSC14586,71990,74300,inactive
CG6867,DRSC20013,3.48e5,3.78e5,inactive
w-cup,DRSC03048,38533,84617,inactive
Atpalpha,DRSC14119,35910,38553,inactive
CG13074,DRSC09957,61273,61310,inactive
CG42579,DRSC20391,2.74e5,2.82e5,inactive
CG11155,DRSC17184,1.78e5,1.64e5,inactive
CG13058,DRSC09941,41513,33073,inactive
IKKepsilon,DRSC03550,52487,60333,inactive
CG17271,DRSC15210,68260,63130,inactive

Not a retest: 6 of the entries above.
Gene,DRSC id,"raw ATP luminescence, replicate 1","raw ATP luminescence, replicate 2",call
PGRP-SA,DRSC19420,3.32e5,3.02e5,inactive
PGRP-SB2,DRSC11092,61300,54313,inactive
mRpL35,DRSC14586,71990,74300,inactive
CG6867,DRSC20013,3.48e5,3.78e5,inactive
w-cup,DRSC03048,38533,84617,inactive
Atpalpha,DRSC14119,35910,38553,inactive
